Test results published in US20230220073A1.
No constants are given. Whether binding was seen depends on the method and setting. Some binding calls cover weakened binding; strength is not graded here.

By UniProt entry, the sequences of proteins in these tests, tags left out. Where a name states a change or a piece, a line headed by the entry shows the natural chain unless it says otherwise. Chains listed by the source or under a name are the forms on record and can include a tag or linker. Residues count along the entry.
UniProt Q01973: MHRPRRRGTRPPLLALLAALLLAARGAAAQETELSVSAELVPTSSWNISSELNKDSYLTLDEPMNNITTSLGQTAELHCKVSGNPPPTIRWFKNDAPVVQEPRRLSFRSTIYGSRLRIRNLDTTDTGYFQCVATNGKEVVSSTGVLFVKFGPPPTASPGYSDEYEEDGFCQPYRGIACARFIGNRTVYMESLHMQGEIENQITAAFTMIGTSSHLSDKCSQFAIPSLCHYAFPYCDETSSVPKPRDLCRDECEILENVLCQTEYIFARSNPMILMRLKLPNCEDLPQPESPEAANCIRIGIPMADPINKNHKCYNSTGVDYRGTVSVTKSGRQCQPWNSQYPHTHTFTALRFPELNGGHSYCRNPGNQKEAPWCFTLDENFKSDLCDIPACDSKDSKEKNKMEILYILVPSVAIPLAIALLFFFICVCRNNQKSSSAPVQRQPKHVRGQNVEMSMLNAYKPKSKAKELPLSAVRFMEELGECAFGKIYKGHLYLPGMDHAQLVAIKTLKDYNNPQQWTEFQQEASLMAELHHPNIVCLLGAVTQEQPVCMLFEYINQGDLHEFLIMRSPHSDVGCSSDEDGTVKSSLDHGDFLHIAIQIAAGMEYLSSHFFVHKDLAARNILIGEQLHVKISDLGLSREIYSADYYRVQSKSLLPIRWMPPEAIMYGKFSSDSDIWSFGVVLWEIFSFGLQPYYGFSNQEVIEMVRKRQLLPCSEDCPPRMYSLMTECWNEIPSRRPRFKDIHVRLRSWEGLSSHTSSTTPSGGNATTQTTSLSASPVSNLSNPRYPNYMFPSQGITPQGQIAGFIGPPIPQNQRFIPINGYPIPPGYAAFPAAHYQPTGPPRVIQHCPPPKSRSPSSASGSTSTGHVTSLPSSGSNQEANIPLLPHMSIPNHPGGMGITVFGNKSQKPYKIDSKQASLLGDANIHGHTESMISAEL
SKW 6.4 GFP: residues 30-937 of Q01973
ROR1, full extracellular region, on transduced SUP-T1 cells: residues 30-406 of Q01973
ROR1 Ig-like+Frizzled (Fz) domains, on transduced SUP-T1 cells: residues 30-299 of Q01973
ROR1 Ig-like domain alone, on transduced SUP-T1 cells: residues 30-147 of Q01973
ROR1 Ig-like domain with S(50)D, on transduced SUP-T1 cells (Q01973, form named): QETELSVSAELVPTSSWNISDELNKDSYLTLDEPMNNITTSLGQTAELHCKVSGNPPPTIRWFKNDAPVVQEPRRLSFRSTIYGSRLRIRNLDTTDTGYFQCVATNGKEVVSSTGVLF

How the values were obtained:
[1] = molecular target: SKW 6.4 GFP (human) (UniProt Q01973); test: flow cytometry, SKW 6.4 GFP cells stained at 4 C, anti-human Fc-Dylight 647
[2] = molecular target: ROR1, full extracellular region, on transduced SUP-T1 cells (UniProt Q01973); test: flow cytometry on ROR1-expressing cells; whole immunoglobulin
[3] = molecular target: ROR1, full extracellular region, on transduced SUP-T1 cells (UniProt Q01973); test: flow cytometry, transduced SUP-T1 cells, anti-human Fc-Dylight647
[4] = molecular target: ROR1 Ig-like domain alone, on transduced SUP-T1 cells (human) (UniProt Q01973); test: as above
[5] = molecular target: ROR1 Ig-like+Frizzled (Fz) domains, on transduced SUP-T1 cells (UniProt Q01973); test: as above
[6] = molecular target: ROR1 Ig-like domain with S(50)D, on transduced SUP-T1 cells (human) (UniProt Q01973); test: flow cytometry on SUP-T1 cells transduced with mutated ROR1 Ig-like domain

Measured: binding

B1: Clone J chimeric ROR1 antibody (antibody, V domains shown)
VH: DVKLVESGGGLLKPGGSLKLSCVASGFSFSKYWMHWVRQAPGQGLEWIAEIEYDGTETNYAPSIKDRFTISRDNAKNTLYLQMSNVRFEDAATYFCTTEEMHTTDYYYGFAYWGQGTLVTVSS
VL: DIVLTQSPALAVSVGQRATISCRASQSVSISRYDFMHWYQQKPGQQPKLLIYRASNLASGIPARFSGSGSGTDFTLTINPVQADDIATYYCQQNRESPRTFGGGTKLELK
not listed: [6]
binds: all other assays above

B2: Clone B chimeric ROR1 antibody (antibody, V domains shown)
VH: DVQLEESGGGLVRPGRSLKLSCADSGVNFSNRGMAWVRQAPTKGLEWVATISYDGRIIYYRDSVKGRFSISRENAKSTLYLQMDSLRSEDTATYYCARHPIAADWYFDFWGPGTMVTVSS
VL: DIRMTQSPASLSASLGETVTIECLTSEDIYSDLAWFQQKPGKSPQLLIYDANSLQNGVPSRFGGCGSGTQYSLQISSLQSEDVATYFCQQYKNYPPTFGGGTKLVLK
not listed: [6]
binds: all other assays above

B3: Clone A chimeric ROR1 antibody (antibody, V domains shown)
VH: QVQLQQSGTELVKPASSVRISCKASGYTLTTNYMHWIRQQPGNGLEWIGWIYPGNGNTKFNHKFDGRTTLTADKSSSIVYMQLSSLTSEDSAVYFCARSDFDYWGQGVMVTVSS
VL: DIQMTQSPSSMSASLGDRVTFTCQASQDIGNNLIWFQQKPGKSPRPLMYFATSLANGVPSRFSGSRSGSDYSLTISSLESEDLADYHCLQYREYPLTFGSGTKLDLK
binds: [6]
